Assay results from PMC3489907.
Substitutions are numbered along the chain they refer to. For some assays here: A negative result means that nothing was seen under these conditions. For some assays here: At least one verdict rests on a figure or table, not on a statement of the authors. For some assays here: Where a protein sequence is shown, tags need not be part of it. For some assays here: A weaker result is weaker than the reference pair of the same experiment. For some assays here: For at least one entry, the source does not settle the construct or the ends of the probe.

By UniProt entry, the sequences of proteins in these tests, tags left out. Where a name states a change or a piece, a line headed by the entry shows the natural chain unless it says otherwise.
UniProt P68739: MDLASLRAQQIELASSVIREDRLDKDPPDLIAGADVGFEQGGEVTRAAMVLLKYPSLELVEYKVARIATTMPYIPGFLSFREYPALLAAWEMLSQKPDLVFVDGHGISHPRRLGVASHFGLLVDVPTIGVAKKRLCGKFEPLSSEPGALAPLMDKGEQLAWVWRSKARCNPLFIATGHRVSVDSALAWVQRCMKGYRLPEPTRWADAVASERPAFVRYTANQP

Tests used:
Assay in all cases: EMSA
[1] = biological target: T1, ENDOV-RK R248E,K249E (Homo sapiens) (UniProt Q8N8Q3); conditions: 5 mM Ca2+, binding completely lost, EMSA: 10 fmol DNA in 10 µl, 5 ng pQE31 competitor DNA, 5 mM CaCl2, 10 mM HEPES-KOH pH 7.4, 1 mM DTT, 20% glycerol, 4°C 15 min, 10% native PAGE with 5 mM CaCl2 on ice, recombinant protein, residues 1-282, folded or branched DNA
T1 sequence (looked up): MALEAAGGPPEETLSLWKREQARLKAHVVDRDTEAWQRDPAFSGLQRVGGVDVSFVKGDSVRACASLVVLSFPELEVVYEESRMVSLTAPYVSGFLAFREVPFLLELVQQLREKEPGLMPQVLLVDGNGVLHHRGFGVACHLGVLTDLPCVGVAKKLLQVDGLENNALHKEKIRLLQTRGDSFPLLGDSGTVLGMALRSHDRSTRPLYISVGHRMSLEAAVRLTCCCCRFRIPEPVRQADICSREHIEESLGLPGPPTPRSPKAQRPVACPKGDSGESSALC

[2] = biological target: T2, ENDOV-Wg (wedge mutant) P90G,Y91G,V92G,S93G (Homo sapiens) (UniProt Q8N8Q3); conditions: 5 mM Ca2+, strongly compromised, EMSA: 10 fmol DNA in 10 µl, 5 ng pQE31 competitor DNA, 5 mM CaCl2, 10 mM HEPES-KOH pH 7.4, 1 mM DTT, 20% glycerol, 4°C 15 min, 10% native PAGE with 5 mM CaCl2 on ice, recombinant protein, residues 1-282, folded or branched DNA
T2 sequence (looked up): T1 sequence (looked up) with P90G, Y91G, V92G, S93G, E248R, E249K

[3] = biological target: T3, ENDOV-Y91A (Homo sapiens) (UniProt Q8N8Q3); conditions: 5 mM Ca2+, as WT, EMSA: 10 fmol DNA in 10 µl, 5 ng pQE31 competitor DNA, 5 mM CaCl2, 10 mM HEPES-KOH pH 7.4, 1 mM DTT, 20% glycerol, 4°C 15 min, 10% native PAGE with 5 mM CaCl2 on ice, recombinant protein, residues 1-282, folded or branched DNA
T3 sequence (looked up): T1 sequence (looked up) with Y91A, E248R, E249K

[4] = biological target: E. coli endoV (Escherichia coli) (UniProt P68739); conditions: 5 mM Ca2+, smear, no distinct shift; EMSA: 10 fmol DNA in 10 µl, 5 ng pQE31 competitor DNA, 5 mM CaCl2, 10 mM HEPES-KOH pH 7.4, 1 mM DTT, 20% glycerol, 4°C 15 min; 10% native PAGE with 5 mM CaCl2 on ice; recombinant protein; residues 1-223; label: 5'-32P on strand 1
[5] = biological target: T4, ENDOV WT (human endonuclease V, exon 10 isoform) (Homo sapiens) (UniProt Q8N8Q3); conditions: 5 mM Ca2+, very weak and unspecific; EMSA: 10 fmol DNA in 10 µl, 5 ng pQE31 competitor DNA, 5 mM CaCl2, 10 mM HEPES-KOH pH 7.4, 1 mM DTT, 20% glycerol, 4°C 15 min; 10% native PAGE with 5 mM CaCl2 on ice; recombinant protein; residues 1-282; label: 5'-32P on strand 1
T4 sequence (looked up): T1 sequence (looked up) with E248R, E249K

“GGATACGTAACAACGCTTATGCATCGCCGCCGCTACATCCCTGAGCTGAC / GTCAGCTCAGGGATGTAGCGGCGG / TGTGTTCGATCTCGATCAGAATGACGATGCATAAGCGTTGTTACGTATCC [5'-flap (10+12+13*)]”: no binding ([1]; label: 5'-32P on strand 3); binds more weakly ([2]; label: 5'-32P on strand 3); binds ([3]; label: 5'-32P on strand 3).

“GGATACGTAACAACGCTTATGCATCGCCGCCGCTACATCCCTGAGCTGAC / TGTGTTCGATCTCGATCAGAATGACGATGCATAAGCGTTGTTACGTATCC / GTCAGCTCAGGGATGTAGCGGCGGAGTCATTCTGATCGAGATCGAACACA [3-way junction (10*+13+14)]”: no binding ([1]; label: 5'-32P on strand 1); binds more weakly ([2]; label: 5'-32P on strand 1); binds ([3]; label: 5'-32P on strand 1).

“GGATACGTAACAACGCTTATGCATCGCCGCCGCTACATCCCTGAGCTGAC / ATGCATAAGCGTTGTTACGTATCC / GTCAGCTCAGGGATGTAGCGGCGGAGTCATTCTGATCGAGATCGAACACA [3'-flap (10+11+14*)]”: no binding ([1]; label: 5'-32P on strand 3); binds more weakly ([2]; label: 5'-32P on strand 3); binds ([3]; label: 5'-32P on strand 3).

“CCGTAGAGCTACAGATCGGTCACCG (double strand) [undamaged dsDNA (1+2*)]”: binds more weakly [4]; binds more weakly [5].

“GGATACGTAACAACGCTTATGCATCGCCGCCGCTACATCCCTGAGCTGAC / TGTGTTCGATCTCGATCAGAATGACGATGCATAAGCGTTGTTACGTATCC [pseudo-Y (10*+13)]”: no binding ([1]; label: 5'-32P on strand 1); binds more weakly ([2]; label: 5'-32P on strand 1); binds ([3]; label: 5'-32P on strand 1).

“GGATACGTAACAACGCTTATGCATCGCCGCCGCTACATCCCTGAGCTGAC / ATGCATAAGCGTTGTTACGTATCC / GTCAGCTCAGGGATGTAGCGGCGGAGTCATTCTGATCGAGATCGAACACA / TGTGTTCGATCTCGATCAGAATGA [fork (10+11+14*+15)]”: no binding ([1]; label: 5'-32P on strand 3); binds more weakly ([2]; label: 5'-32P on strand 3); binds ([3]; label: 5'-32P on strand 3).

“CCGCTACCAGTGATCACCAATGGATTGCTAGGACATCTTTGCCCACCTGCAGGTTCACCC / TGGGTGAACCTGCAGGTGGGCAAAGATGTCCTAGCAATCCATTGTCTATGACGTCAAGCT / GAGCTTGACGTCATAGACAATGGATTGCTAGGACATCTTTGCCGTCTTGTCAATATCGGC / TGCCGATATTGACAAGACGGCAAAGATGTCCTAGCAATCCATTGGTGATCACTGGTAGCGG [Holliday junction (16+17*+18+19)]”: no binding ([1]; label: 5'-32P on strand 2); binds more weakly ([2]; label: 5'-32P on strand 2); binds ([3]; label: 5'-32P on strand 2).
